Experimental data reported in patent US20130287714A1, “COSMETIC AND/OR DERMATOLOGICAL PREPARATIONS CONTAINING SNOW ALGAE EXTRACT” (priority 2010, published 2013).
For at least one compound, name, drawing or mass did not settle the structure.

System: GADD45A transcript
Test: GADD45A transcript PCR in fibroblasts
Format: cell-based
Details: 1% or 3% for two hours, then H2O2 (150 μM)

Compound: O=C1O[C@H]([C@@H](O)CO)C(O)=C1O [ascorbate]
- GADD45A transcripts after the stress treatment versus control cells: more GADD45A transcripts
